Experimental data published in doi:10.1101/2023.11.08.566199.
These are yes or no findings as the source states them, for the method shown. In cells and extracts the contact can be indirect. Some entries that bind do so weakly or less than the wild type. One block for each molecule: values may come before it.

Target: YFP-tagged Solo (WT) (UniProt Q8TER5)
Experiment: co-IP

- binding: binds
Molecule: mCherry-tagged wild-type (WT) PDZ-RhoGEF (from UniProt O15085 1-1522)

- binding: binds
B1: mCherry-PRG deletion mutant (N-170) (domain or fragment, UniProt O15085 1-170)
chain: MSVRLPQSIDRLSSLSSLGDSAPERKSPSHHRQPSDASETTGLVQRCVIIQKDQHGFGFTVSGDRIVLVQSVRPGGAAMKAGVKEGDRIIKVNGTMVTNSSHLEVVKLIKSGAYVALTLLGSSPSSMGISGLQQDPSPAGAPRITSVIPSPPPPPPLPPPQRITGPKPLQ
